# Laboratory results taken from doi:10.1101/2020.07.15.204800 (bioRxiv, 2020).
# No constants are given. Whether binding was seen depends on the method and setting. In cells and extracts the contact can be indirect. Some results given as binding are weak or reduced against the parent protein; the word gives no strength. Sequences can lack the tags named with a protein.
# T1: WDR41-HA with complete deletion of the 7CD loop (residues 354-393) (UniProt Q9HAD4)
# T1 sequence: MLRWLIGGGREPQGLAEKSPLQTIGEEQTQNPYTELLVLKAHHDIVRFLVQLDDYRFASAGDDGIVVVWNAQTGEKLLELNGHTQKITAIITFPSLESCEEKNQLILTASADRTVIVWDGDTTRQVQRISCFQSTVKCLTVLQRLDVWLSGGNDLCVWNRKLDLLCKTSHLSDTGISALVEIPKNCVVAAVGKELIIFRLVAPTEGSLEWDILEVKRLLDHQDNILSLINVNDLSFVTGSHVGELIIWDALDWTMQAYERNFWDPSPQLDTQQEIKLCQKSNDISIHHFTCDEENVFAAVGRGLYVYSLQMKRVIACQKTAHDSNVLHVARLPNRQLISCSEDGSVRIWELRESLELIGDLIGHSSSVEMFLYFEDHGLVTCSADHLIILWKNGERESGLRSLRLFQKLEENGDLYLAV
# T2: WDR41-HA with deletion of the first linker sub-region of the 7CD loop (354-360) (UniProt Q9HAD4)
# T2 sequence: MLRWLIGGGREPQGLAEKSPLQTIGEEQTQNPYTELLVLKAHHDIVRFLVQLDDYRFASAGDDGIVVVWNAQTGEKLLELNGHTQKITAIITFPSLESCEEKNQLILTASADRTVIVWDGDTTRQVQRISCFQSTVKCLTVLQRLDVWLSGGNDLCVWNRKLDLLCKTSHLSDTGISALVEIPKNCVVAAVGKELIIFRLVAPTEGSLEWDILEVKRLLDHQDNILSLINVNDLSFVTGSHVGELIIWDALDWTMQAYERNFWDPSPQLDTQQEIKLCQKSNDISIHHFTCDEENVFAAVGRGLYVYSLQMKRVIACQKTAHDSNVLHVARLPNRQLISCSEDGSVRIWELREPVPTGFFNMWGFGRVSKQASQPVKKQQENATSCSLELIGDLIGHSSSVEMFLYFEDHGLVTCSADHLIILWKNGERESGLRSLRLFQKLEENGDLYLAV
# T3: WDR41-HA with deletion of the second linker sub-region of the 7CD loop (374-393) (UniProt Q9HAD4)
# T3 sequence: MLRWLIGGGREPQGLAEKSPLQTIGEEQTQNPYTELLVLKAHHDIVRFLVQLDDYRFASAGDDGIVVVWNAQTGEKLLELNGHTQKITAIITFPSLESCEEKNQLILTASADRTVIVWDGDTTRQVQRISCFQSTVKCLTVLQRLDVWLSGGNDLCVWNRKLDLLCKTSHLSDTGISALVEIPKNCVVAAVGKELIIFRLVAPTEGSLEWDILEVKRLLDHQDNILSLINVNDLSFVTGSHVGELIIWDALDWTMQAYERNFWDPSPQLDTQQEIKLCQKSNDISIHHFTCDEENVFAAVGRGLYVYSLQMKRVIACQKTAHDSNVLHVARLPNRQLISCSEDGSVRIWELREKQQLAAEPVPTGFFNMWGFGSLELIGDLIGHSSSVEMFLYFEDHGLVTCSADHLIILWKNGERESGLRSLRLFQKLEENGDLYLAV
# T4: WDR41-HA with the 7CD loop (residues 354-393) replaced by the flexible linker GGSGGGSG (UniProt Q9HAD4)
# T4 sequence: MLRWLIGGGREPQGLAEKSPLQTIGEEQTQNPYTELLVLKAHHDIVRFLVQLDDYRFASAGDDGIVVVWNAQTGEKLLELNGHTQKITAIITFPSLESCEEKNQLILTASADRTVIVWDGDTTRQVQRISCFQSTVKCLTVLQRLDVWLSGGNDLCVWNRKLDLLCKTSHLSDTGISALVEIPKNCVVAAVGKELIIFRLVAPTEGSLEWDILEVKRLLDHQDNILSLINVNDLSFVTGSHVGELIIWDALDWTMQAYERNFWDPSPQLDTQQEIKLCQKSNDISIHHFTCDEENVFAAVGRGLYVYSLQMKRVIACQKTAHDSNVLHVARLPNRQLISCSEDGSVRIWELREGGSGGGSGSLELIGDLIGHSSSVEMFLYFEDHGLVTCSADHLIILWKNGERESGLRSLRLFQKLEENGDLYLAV
# T5: WDR41-HA with deletion of the turn sub-region of the 7CD loop (361-373) (UniProt Q9HAD4)
# T5 sequence: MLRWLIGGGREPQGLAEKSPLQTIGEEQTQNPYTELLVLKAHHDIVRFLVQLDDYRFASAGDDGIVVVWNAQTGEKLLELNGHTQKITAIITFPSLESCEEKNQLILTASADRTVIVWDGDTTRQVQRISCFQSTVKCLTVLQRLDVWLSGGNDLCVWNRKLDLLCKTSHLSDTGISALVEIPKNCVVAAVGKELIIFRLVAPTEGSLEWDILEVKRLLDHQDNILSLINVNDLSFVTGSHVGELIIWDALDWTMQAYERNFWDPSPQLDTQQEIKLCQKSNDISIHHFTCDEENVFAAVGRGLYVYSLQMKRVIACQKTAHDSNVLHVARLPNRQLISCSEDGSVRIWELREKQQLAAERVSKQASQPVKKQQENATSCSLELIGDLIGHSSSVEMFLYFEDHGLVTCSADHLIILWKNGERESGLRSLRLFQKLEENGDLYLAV
# T6: WDR41-HA wild type, Q9HAD4
# T6 chain: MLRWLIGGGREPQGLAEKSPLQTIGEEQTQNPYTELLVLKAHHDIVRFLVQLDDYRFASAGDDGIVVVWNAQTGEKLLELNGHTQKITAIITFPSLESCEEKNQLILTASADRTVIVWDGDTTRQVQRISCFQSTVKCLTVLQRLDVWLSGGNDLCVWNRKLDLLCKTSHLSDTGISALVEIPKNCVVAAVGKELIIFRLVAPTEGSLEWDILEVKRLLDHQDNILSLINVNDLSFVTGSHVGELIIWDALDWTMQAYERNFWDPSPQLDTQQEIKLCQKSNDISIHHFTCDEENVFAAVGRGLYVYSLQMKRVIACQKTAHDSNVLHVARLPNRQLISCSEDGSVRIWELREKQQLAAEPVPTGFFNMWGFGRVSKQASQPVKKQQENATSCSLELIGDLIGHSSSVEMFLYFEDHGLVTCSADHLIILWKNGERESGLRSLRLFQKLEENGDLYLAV
# T7: GFP-WDR41-PIP (WDR41 PQLC2-interacting peptide, 364-373, as a GFP fusion)
# T7 sequence: TGFFNMWGFG
# Legend:
# Experiment in all cases: co-IP
# [1] = target: T1, WDR41-HA with complete deletion of the 7CD loop (residues 354-393)
# [2] = target: T2, WDR41-HA with deletion of the first linker sub-region of the 7CD loop (354-360)
# [3] = target: T3, WDR41-HA with deletion of the second linker sub-region of the 7CD loop (374-393)
# [4] = target: T4, WDR41-HA with the 7CD loop (residues 354-393) replaced by the flexible linker GGSGGGSG
# [5] = target: T5, WDR41-HA with deletion of the turn sub-region of the 7CD loop (361-373)
# [6] = target: T6, WDR41-HA wild type, Q9HAD4; details: remark: other sources report otherwise
# [7] = target: T7, GFP-WDR41-PIP (WDR41 PQLC2-interacting peptide, 364-373, as a GFP fusion)
binder,measurement,setting,value
"C9orf72 (protein, UniProt Q96LT7 1-481) MSTLCPPPSPAVAKTEIALSGKSPLLAATFAYWDNILGPRVRHIWAPKTEQVLLSDGEITFLANHTLNGEILRNAESGAIDVKFFVLSEKGVIIVSLIFDGNWNGDRSTYGLSIILPQTELSFYLPLHRVCVDRLTHIIRKGRIWMHKERQENVQKIILEGTERMEDQGQSIIPMLTGEVIPVMELLSSMKSHSVPEEIDIADTVLNDDDIGDSCHEGFLLNAISSHLQTCGCSVVVGSSAEKVNKIVRTLCLFLTPAERKCSRLCEAESSFKYESGLFVQGLLKDSTGSFVLPFRQVMYAPYPTTHIDVDVNTVKQMPPCHEHIYNQRRYMRSELTAFWRATSEEDMAQDTIIYTDESFTPDLNIFQDVLHRDTLVKAFLDQVFQLKPGLSLRSTFLAQFLLVLHRKALTLIKYIEDDTQKGKKPFKSLRNLKIDLDLTAEGDLNIIMALAEKIKPGLHSFIFGRPFYTSVQERDVLMTF",binding,[1],binds
same,binding,[2],binds
same,binding,[3],binds
same,binding,[4],binds
same,binding,[5],binds
"C9orf72, Q96LT7 1-481 (protein) MSTLCPPPSPAVAKTEIALSGKSPLLAATFAYWDNILGPRVRHIWAPKTEQVLLSDGEITFLANHTLNGEILRNAESGAIDVKFFVLSEKGVIIVSLIFDGNWNGDRSTYGLSIILPQTELSFYLPLHRVCVDRLTHIIRKGRIWMHKERQENVQKIILEGTERMEDQGQSIIPMLTGEVIPVMELLSSMKSHSVPEEIDIADTVLNDDDIGDSCHEGFLLNAISSHLQTCGCSVVVGSSAEKVNKIVRTLCLFLTPAERKCSRLCEAESSFKYESGLFVQGLLKDSTGSFVLPFRQVMYAPYPTTHIDVDVNTVKQMPPCHEHIYNQRRYMRSELTAFWRATSEEDMAQDTIIYTDESFTPDLNIFQDVLHRDTLVKAFLDQVFQLKPGLSLRSTFLAQFLLVLHRKALTLIKYIEDDTQKGKKPFKSLRNLKIDLDLTAEGDLNIIMALAEKIKPGLHSFIFGRPFYTSVQERDVLMTF",binding,[6],binds
"PQLC2-FLAG L127/8A-L288/9A (protein, UniProt Q6ZP29 1-291) MVWKKLGSRNFSSCPSGSIQWIWDVLGECAQDGWDEASVGLGLISILCFAASTFPQFIKAYKTGNMDQALSLWFLLGWIGGDSCNLIGSFLADQLPLQTYTAVYYVLADLVMLTLYFYYKFRTRPSAASAPINSVLLFLMGMACATPLLSAAGPVAAPREAFRGRALLSVESGSKPFTRQEVIGFVIGSISSVLYLLSRLPQIRTNFLRKSTQGISYSLFALVMLGNTLYGLSVLLKNPEEGQSEGSYLLHHLPWLVGSLGVLLLDTIISIQFLVYRRSTAASELEPAAPS",binding,[7],binds
"PQLC2-FLAG P55L-P201L (protein, UniProt Q6ZP29 1-291) MVWKKLGSRNFSSCPSGSIQWIWDVLGECAQDGWDEASVGLGLISILCFAASTFLQFIKAYKTGNMDQALSLWFLLGWIGGDSCNLIGSFLADQLPLQTYTAVYYVLADLVMLTLYFYYKFRTRPSLLSAPINSVLLFLMGMACATPLLSAAGPVAAPREAFRGRALLSVESGSKPFTRQEVIGFVIGSISSVLYLLSRLLQIRTNFLRKSTQGISYSLFALVMLGNTLYGLSVLLKNPEEGQSEGSYLLHHLPWLVGSLGVLLLDTIISIQFLVYRRSTAASELEPLLPS",binding,[7],no binding
